Reference: the supplement of paper PMC10849652
This is one part of the list.

Chains of the proteins cited; added tags and fusions are not shown. Lines headed by an entry give the natural chain unless they say otherwise; changes in a name come on top.
UniProt Q8N335: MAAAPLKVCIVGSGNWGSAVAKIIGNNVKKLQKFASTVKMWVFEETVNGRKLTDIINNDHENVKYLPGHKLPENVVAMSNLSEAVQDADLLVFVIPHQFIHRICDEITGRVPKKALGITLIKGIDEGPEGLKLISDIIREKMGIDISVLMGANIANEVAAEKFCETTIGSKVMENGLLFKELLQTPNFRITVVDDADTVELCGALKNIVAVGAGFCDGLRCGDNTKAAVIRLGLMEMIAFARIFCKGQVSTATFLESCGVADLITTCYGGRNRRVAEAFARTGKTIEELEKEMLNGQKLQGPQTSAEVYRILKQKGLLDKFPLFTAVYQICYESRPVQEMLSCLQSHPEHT
UniProt O14653: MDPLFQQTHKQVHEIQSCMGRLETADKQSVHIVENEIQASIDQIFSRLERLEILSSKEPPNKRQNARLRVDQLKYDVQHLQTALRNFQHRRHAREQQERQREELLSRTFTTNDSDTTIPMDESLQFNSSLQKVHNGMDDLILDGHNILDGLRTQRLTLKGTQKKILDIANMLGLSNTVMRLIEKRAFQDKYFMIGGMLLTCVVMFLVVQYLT
UniProt Q9BXV9: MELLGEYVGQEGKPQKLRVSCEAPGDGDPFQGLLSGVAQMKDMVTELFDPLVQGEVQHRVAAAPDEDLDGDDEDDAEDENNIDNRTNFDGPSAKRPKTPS
UniProt Q08379: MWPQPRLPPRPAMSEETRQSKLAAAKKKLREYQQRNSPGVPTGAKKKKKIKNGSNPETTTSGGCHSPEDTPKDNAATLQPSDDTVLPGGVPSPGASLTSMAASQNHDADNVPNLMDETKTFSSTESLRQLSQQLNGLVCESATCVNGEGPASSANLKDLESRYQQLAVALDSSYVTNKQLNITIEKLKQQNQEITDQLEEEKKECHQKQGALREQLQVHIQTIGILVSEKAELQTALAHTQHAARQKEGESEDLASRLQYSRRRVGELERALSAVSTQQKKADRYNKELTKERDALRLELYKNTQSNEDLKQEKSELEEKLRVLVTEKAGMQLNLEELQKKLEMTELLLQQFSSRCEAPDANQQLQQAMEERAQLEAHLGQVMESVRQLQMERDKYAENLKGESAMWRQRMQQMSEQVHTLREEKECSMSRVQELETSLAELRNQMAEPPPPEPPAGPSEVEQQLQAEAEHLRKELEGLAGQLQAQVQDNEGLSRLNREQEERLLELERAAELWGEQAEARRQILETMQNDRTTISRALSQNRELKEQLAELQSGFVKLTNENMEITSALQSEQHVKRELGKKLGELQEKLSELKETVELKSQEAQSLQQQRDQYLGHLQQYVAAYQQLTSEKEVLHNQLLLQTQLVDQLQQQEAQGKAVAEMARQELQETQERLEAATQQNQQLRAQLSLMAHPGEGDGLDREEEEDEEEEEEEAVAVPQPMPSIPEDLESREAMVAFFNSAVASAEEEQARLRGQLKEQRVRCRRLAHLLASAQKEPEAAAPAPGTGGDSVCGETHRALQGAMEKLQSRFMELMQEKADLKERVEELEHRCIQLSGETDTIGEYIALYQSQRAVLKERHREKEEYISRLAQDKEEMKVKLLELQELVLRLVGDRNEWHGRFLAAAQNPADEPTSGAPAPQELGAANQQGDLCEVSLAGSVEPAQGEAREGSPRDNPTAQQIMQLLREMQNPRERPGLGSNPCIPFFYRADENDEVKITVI
UniProt Q9HC44: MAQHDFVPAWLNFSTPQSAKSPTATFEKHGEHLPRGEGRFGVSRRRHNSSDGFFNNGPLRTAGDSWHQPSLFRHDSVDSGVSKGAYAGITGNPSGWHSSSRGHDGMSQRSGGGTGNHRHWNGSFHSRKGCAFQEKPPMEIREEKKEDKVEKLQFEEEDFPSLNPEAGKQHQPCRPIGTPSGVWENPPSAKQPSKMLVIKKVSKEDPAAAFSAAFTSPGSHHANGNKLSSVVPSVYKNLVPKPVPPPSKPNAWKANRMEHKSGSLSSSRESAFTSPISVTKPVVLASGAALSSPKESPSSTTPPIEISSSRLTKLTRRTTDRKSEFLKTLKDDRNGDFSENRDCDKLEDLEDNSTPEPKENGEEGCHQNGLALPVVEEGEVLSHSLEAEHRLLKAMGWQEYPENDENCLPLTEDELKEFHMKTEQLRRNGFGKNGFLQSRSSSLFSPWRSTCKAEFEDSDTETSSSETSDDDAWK
UniProt Q9Y223: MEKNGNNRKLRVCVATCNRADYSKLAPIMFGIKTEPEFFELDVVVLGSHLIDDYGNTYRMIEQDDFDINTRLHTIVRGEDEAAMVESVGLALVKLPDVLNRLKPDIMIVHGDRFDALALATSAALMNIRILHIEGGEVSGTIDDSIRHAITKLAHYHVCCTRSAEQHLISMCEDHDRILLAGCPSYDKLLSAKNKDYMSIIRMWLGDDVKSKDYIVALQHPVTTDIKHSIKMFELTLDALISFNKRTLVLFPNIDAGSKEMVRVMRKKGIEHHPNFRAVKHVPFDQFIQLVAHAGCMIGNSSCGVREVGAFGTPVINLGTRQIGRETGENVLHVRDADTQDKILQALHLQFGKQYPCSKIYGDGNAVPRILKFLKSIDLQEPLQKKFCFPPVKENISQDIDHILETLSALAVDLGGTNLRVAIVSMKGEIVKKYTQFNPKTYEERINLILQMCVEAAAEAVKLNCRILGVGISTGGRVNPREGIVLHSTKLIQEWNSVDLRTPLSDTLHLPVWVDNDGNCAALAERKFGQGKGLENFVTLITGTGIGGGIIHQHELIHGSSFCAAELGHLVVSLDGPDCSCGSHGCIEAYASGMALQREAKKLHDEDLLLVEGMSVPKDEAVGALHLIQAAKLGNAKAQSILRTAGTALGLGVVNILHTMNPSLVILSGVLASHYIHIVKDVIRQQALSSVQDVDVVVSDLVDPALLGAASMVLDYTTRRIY
UniProt O00461: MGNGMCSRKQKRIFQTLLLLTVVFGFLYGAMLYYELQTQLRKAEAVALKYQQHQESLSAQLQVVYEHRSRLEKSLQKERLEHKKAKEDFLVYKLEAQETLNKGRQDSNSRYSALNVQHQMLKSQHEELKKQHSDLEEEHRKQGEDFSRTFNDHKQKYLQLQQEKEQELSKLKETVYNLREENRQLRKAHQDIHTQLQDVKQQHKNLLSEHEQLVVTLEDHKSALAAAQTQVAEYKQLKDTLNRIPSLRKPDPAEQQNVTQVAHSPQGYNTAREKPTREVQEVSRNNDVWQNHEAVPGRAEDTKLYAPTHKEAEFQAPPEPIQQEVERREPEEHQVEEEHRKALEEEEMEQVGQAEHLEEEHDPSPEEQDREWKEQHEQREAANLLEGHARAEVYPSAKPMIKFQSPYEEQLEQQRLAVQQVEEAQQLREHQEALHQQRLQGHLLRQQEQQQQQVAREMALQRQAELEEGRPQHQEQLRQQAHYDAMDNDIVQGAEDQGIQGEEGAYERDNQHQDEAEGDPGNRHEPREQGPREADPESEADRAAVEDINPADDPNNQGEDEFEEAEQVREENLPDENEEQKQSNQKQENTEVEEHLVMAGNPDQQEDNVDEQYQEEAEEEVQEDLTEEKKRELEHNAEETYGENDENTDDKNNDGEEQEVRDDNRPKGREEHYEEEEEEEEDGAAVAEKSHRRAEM
UniProt P17900: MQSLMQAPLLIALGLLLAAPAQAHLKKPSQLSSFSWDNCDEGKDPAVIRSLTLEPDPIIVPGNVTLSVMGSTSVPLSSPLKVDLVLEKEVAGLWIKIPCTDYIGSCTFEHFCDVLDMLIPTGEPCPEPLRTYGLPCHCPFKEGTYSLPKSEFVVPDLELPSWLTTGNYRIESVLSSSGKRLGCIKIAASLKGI
UniProt B7ZAQ6: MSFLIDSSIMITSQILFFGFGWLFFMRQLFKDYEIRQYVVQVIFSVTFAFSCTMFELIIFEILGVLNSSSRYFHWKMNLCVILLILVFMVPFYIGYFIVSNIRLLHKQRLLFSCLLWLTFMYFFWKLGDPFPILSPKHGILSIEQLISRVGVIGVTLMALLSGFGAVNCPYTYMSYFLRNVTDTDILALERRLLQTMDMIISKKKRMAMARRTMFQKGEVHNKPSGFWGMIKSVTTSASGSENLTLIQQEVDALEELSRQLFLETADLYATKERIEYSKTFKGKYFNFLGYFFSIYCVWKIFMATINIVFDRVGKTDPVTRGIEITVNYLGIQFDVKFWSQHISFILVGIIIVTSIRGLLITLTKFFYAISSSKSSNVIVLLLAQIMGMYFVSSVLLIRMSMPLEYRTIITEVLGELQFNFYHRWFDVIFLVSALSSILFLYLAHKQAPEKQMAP
UniProt Q9H9Y4: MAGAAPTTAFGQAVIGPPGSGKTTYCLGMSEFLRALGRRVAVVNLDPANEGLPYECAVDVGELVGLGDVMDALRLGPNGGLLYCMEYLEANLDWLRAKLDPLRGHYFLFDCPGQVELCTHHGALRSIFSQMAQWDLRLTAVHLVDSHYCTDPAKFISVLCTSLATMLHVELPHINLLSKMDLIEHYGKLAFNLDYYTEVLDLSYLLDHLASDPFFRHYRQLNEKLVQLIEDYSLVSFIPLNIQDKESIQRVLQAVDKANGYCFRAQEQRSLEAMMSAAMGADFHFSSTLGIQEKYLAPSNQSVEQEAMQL
UniProt Q9NPR9: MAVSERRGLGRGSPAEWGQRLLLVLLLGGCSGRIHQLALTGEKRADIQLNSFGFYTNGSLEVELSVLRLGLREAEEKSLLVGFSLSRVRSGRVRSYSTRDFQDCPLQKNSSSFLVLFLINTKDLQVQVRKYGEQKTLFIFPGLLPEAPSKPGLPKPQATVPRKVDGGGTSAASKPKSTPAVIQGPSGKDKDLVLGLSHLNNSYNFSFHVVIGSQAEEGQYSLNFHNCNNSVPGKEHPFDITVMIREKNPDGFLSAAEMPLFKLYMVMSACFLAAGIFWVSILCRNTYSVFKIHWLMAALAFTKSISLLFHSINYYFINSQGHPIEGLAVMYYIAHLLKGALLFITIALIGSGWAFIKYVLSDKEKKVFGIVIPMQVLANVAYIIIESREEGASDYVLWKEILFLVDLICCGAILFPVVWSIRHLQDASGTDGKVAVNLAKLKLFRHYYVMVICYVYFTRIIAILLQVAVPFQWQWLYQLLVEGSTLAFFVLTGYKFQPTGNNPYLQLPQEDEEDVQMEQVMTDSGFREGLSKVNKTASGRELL
UniProt Q9BRX5: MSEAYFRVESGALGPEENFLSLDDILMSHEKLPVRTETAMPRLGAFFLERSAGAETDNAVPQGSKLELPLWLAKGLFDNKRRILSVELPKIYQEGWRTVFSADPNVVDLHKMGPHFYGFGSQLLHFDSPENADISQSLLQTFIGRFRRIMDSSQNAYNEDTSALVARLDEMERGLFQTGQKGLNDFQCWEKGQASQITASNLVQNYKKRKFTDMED
UniProt Q9NS18: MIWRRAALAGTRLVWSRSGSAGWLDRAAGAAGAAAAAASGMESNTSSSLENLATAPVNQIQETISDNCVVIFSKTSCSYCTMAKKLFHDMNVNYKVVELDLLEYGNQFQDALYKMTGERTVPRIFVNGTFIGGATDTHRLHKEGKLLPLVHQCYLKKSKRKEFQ
UniProt Q5T7V8: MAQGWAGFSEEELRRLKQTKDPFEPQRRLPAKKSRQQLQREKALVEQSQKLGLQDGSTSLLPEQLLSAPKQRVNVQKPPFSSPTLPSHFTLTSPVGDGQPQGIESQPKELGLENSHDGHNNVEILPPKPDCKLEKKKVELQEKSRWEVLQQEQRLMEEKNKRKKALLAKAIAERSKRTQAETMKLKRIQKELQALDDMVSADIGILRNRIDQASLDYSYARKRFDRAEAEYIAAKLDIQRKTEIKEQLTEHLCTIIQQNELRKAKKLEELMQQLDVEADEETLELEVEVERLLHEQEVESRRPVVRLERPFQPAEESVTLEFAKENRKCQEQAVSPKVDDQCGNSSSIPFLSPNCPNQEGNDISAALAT
UniProt P28799: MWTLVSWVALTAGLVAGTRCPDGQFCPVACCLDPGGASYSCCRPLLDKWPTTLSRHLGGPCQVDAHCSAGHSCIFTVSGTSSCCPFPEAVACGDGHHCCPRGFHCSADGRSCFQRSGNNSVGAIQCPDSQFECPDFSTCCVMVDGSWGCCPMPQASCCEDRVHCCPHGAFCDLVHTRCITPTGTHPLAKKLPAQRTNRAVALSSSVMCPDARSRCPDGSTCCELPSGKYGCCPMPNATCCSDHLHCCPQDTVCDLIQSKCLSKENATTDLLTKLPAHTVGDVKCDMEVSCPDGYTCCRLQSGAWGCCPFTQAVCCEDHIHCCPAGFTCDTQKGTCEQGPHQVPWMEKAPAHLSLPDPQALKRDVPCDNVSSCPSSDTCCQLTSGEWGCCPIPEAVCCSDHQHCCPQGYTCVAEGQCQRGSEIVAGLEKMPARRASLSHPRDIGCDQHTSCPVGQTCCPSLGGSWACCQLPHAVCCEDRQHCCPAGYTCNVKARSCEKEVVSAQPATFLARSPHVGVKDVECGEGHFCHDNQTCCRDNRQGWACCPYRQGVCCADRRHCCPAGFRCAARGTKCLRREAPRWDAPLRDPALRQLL

Columns and labels:
Assay in all cases: log2 fold change, soluble protein after heating vs DMSO (PISA); higher = thermal stabilisation; K562 cells, 10 uM, 30 min; active = over 0.2 and 3.5 SD of the protein, either way, in both replicates (recomputed)
saracatinib = compound: CN1CCN(CCOc2cc(OC3CCOCC3)c3c(Nc4c(Cl)ccc5c4OCO5)ncnc3c2)CC1 [saracatinib]
Procedure, shortened: (§1)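 K562 cells at 2×10^6 cells/mL were treated for 30 min with 10 μM compound, and aliquots were heated for 3 min over 48°C-58°C before pooling. Extraction used PBS with 0.5% NP-40 at 4°C, and soluble protein was the supernatant after 21,000xg for 90 min, measured by TMTpro 16plex LC-MS/MS with channel sums equalised. Thermal stability values, relative to control samples and from duplicates, are log2 fold changes.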

sotrastaurin = compound: CN1CCN(c2nc(C3=C(c4c[nH]c5ccccc45)C(=O)NC3=O)c3ccccc3n2)CC1 [sotrastaurin]
Procedure, shortened: as §1

alvocidib = compound: CN1CC[C@H](c2c(O)cc(O)c3c(=O)cc(-c4ccccc4Cl)oc23)[C@H](O)C1 [alvocidib]
Procedure, shortened: as §1

Tubastatin A = compound: CN1CCc2c(c3ccccc3n2Cc2ccc(C(=O)NO)cc2)C1 [Tubastatin A]
Procedure, shortened: as §1

[1] = compound: CNC(=O)C1=CC=CC=C1NC2=NC(=NC=C2Cl)NC3=C(C=C(C=C3)N4CCOCC4)OC
Procedure, shortened: as §1

defactinib = compound: CNC(=O)c1ccc(Nc2ncc(C(F)(F)F)c(NCc3nccnc3N(C)S(C)(=O)=O)n2)cc1 [defactinib]
Procedure, shortened: as §1

rucaparib = compound: CNCc1ccc(-c2[nH]c3cc(F)cc4c3c2CCNC4=O)cc1 [rucaparib]
Procedure, shortened: as §1

[2] = compound: CNc1nc(-c2ccc3c(N)n[nH]c3c2)cc(N2C[C@@H](C(=O)NC3CCCCC3)CC[C@H]2C)n1
Procedure, shortened: as §1

encorafenib = compound: COC(=O)N[C@@H](C)CNc1nccc(-c2cn(C(C)C)nc2-c2cc(Cl)cc(NS(C)(=O)=O)c2F)n1 [encorafenib]
Procedure, shortened: as §1

[3] = compound: COC(=O)[C@H](CCSC)NC(=O)C1=C(C=C(C=C1)NC[C@H](CS)N)C2=CC=CC=C2
Procedure, shortened: as §1

[4] = compound: COC1=CC=C(C=C1)CN2C=CC3=C2C=C(C=C3)C(=O)NO
Procedure, shortened: as §1

filanesib = compound: CON(C)C(=O)N1N=C(c2cc(F)ccc2F)S[C@@]1(CCCN)c1ccccc1 [filanesib]
Procedure, shortened: as §1

zotarolimus = compound: CO[C@H]1C[C@@H]2CC[C@@H](C)[C@@](O)(O2)C(=O)C(=O)N2CCCC[C@H]2C(=O)O[C@H]([C@H](C)C[C@@H]2CC[C@H](n3cnnn3)[C@H](OC)C2)CC(=O)[C@H](C)/C=C(\C)[C@@H](O)[C@@H](OC)C(=O)[C@H](C)C[C@H](C)/C=C/C=C/C=C/1C [zotarolimus]
Procedure, shortened: as §1

idasanutlin = compound: COc1cc(C(=O)O)ccc1NC(=O)[C@@H]1N[C@@H](CC(C)(C)C)[C@](C#N)(c2ccc(Cl)cc2F)[C@H]1c1cccc(Cl)c1F [idasanutlin]
Procedure, shortened: as §1

alisertib = compound: COc1cc(Nc2ncc3c(n2)-c2ccc(Cl)cc2C(c2c(F)cccc2OC)=NC3)ccc1C(=O)O [alisertib]
Procedure, shortened: as §1

[5] = compound: COc1cc2nc(-c3cc(F)ccc3O)nc(N[C@@H]3CNC[C@H]3C(C)(C)O)c2cc1OC
Procedure, shortened: as §1

gefitinib = compound: COc1cc2ncnc(Nc3ccc(F)c(Cl)c3)c2cc1OCCCN1CCOCC1 [gefitinib]
Procedure, shortened: as §1

[6] = compound: COc1cccc2cc(-c3nc([C@H]4CC[C@H](C(=O)O)CC4)n4ncnc(N)c34)[nH]c12
Procedure, shortened: as §1

lapatinib = compound: CS(=O)(=O)CCNCc1ccc(-c2ccc3ncnc(Nc4ccc(OCc5cccc(F)c5)c(Cl)c4)c3c2)o1 [lapatinib]
Procedure, shortened: as §1

pictilisib = compound: CS(=O)(=O)N1CCN(Cc2cc3nc(-c4cccc5[nH]ncc45)nc(N4CCOCC4)c3s2)CC1 [pictilisib]
Procedure, shortened: as §1

Measured: log2 fold change

GPD1L (UniProt Q8N335)
inactive: saracatinib -0.037 | sotrastaurin 0.029 | alvocidib -0.052 | Tubastatin A -0.034 | [1] -0.025 | defactinib -0.033 | rucaparib -0.043 | [2] -0.002 | encorafenib 0.002 | [3] -0.008 | [4] -0.006 | filanesib 0.003 | zotarolimus -0.043 | idasanutlin -0.033 | alisertib 0.01 | [5] 0.047 | gefitinib 0.042 | [6] -0.007 | lapatinib 0.015 | pictilisib 0.016

GOSR2 isoform 2 (UniProt O14653)
inactive: saracatinib -0.145 | sotrastaurin -0.09 | alvocidib -0.056 | Tubastatin A -0.026 | [1] -0.08 | defactinib -0.063 | rucaparib 0.082 | [2] -0.011 | encorafenib -0.128 | [3] 0.034 | [4] 0.07 | filanesib -0.144 | zotarolimus 0.072 | idasanutlin -0.015 | alisertib -0.011 | [5] -0.161 | gefitinib -0.022 | [6] -0.004 | lapatinib 0.019 | pictilisib -0.018

GON7 (UniProt Q9BXV9)
inactive: saracatinib 0.022 | sotrastaurin 0.088 | alvocidib -0.012 | Tubastatin A 0.133 | [1] -0.069 | defactinib -0.05 | rucaparib -0.069 | [2] 0.033 | encorafenib 0.01 | [3] 0.156 | [4] 0.014 | filanesib 0.085 | zotarolimus -0.001 | idasanutlin 0.125 | alisertib -0.022 | [5] -0.056 | gefitinib 0.023 | [6] 0.009 | lapatinib 0.006 | pictilisib -0.048

GOLGA2 (UniProt Q08379)
inactive: saracatinib -0.091 | sotrastaurin -0.173 | alvocidib 0.066 | Tubastatin A 0.042 | [1] 0.037 | defactinib 0.002 | rucaparib 0.17 | [2] 0.031 | encorafenib 0.133 | [3] -0.003 | [4] -0.044 | filanesib 0.139 | zotarolimus 0.097 | idasanutlin 0.109 | alisertib 0.137 | [5] 0.073 | gefitinib 0.008 | [6] -0.104 | lapatinib -0.019 | pictilisib -0.002

GRB2 (UniProt P62993)
inactive: saracatinib 0.04 | sotrastaurin -0.083 | alvocidib -0.035 | Tubastatin A -0.033 | [1] 0 | defactinib -0.002 | rucaparib -0.146 | [2] -0.026 | encorafenib 0.042 | [3] 0.054 | [4] -0.036 | filanesib -0.112 | zotarolimus -0.001 | idasanutlin -0.054 | alisertib -0.071 | [5] -0.028 | gefitinib 0.027 | [6] 0.01 | lapatinib -0.009 | pictilisib -0.007

GPBP1L1 (UniProt Q9HC44)
inactive: saracatinib 0.013 | sotrastaurin -0.04 | alvocidib 0.025 | Tubastatin A 0.006 | [1] 0.022 | defactinib -0.028 | rucaparib -0.02 | [2] 0.008 | encorafenib -0.033 | [3] 0.04 | [4] -0.014 | filanesib 0.007 | zotarolimus 0.034 | idasanutlin 0.019 | alisertib 0.041 | [5] -0.012 | gefitinib -0.036 | [6] 0.08 | lapatinib 0.05 | pictilisib -0.038

GNE isoform 2 (UniProt Q9Y223)
inactive: saracatinib 0.037 | sotrastaurin 0.047 | alvocidib 0.024 | Tubastatin A -0.019 | [1] -0.012 | defactinib 0.027 | rucaparib -0.034 | [2] -0.019 | encorafenib 0.01 | [3] -0.024 | [4] -0.015 | filanesib -0.135 | zotarolimus -0.046 | idasanutlin -0.11 | alisertib -0.019 | [5] -0.023 | gefitinib -0.031 | [6] 0.079 | lapatinib -0.008 | pictilisib -0.015

GOLIM4 (UniProt O00461)
inactive: saracatinib -0.041 | sotrastaurin 0.021 | alvocidib -0.01 | Tubastatin A 0.014 | [1] 0.095 | defactinib 0.009 | rucaparib 0.051 | [2] 0.011 | encorafenib 0.012 | [3] -0.015 | [4] 0.021 | filanesib -0.007 | zotarolimus 0.015 | idasanutlin -0.018 | alisertib -0.007 | [5] -0.011 | gefitinib 0.085 | [6] 0.053 | lapatinib 0.024 | pictilisib 0.084

GM2A (UniProt P17900)
inactive: saracatinib 0.056 | sotrastaurin 0.027 | alvocidib 0.063 | Tubastatin A -0.009 | [1] 0.09 | defactinib 0.014 | rucaparib -0.128 | [2] -0.041 | encorafenib -0.1 | [3] 0.094 | [4] -0.009 | filanesib -0.009 | zotarolimus 0 | idasanutlin 0.041 | alisertib 0.198 | [5] -0.012 | gefitinib 0.088 | [6] -0.02 | lapatinib 0.004 | pictilisib 0.083

GPR89A (UniProt B7ZAQ6)
inactive: saracatinib 0.069 | sotrastaurin -0.035 | alvocidib 0.009 | Tubastatin A -0.036 | [1] 0.012 | defactinib -0.029 | rucaparib -0.016 | [2] -0.009 | encorafenib 0.087 | [3] -0.083 | [4] 0.086 | filanesib -0.054 | zotarolimus -0.037 | idasanutlin -0.107 | alisertib 0.014 | [5] -0.03 | gefitinib 0.015 | [6] 0.076 | lapatinib 0.006 | pictilisib 0.078

GPN2 (UniProt Q9H9Y4)
inactive: saracatinib 0.01 | sotrastaurin 0.009 | alvocidib 0.026 | Tubastatin A -0.08 | [1] -0.005 | defactinib 0.027 | rucaparib 0.04 | [2] -0.01 | encorafenib -0.049 | [3] -0.055 | [4] -0.193 | filanesib 0.022 | zotarolimus -0.054 | idasanutlin 0.027 | alisertib -0.045 | [5] -0.045 | gefitinib -0.056 | [6] 0.039 | lapatinib 0.033 | pictilisib 0.119

GPR108 (UniProt Q9NPR9)
inactive: saracatinib -0.005 | sotrastaurin 0.048 | alvocidib -0.025 | Tubastatin A -0.027 | [1] -0.021 | defactinib 0.009 | rucaparib 0.131 | [2] -0.041 | encorafenib -0.05 | [3] 0.136 | filanesib 0.002 | zotarolimus 0.023 | idasanutlin -0.057 | alisertib 0.011 | [5] -0.109 | gefitinib 0.016 | [6] 0.047 | lapatinib 0.053

GINS3 (UniProt Q9BRX5)
inactive: saracatinib -0.015 | sotrastaurin 0.003 | alvocidib -0.072 | Tubastatin A -0.04 | [1] -0.065 | defactinib -0.056 | rucaparib -0.034 | [2] 0.028 | encorafenib -0.001 | [3] 0.003 | [4] -0.033 | filanesib -0.026 | zotarolimus 0.033 | idasanutlin -0.065 | alisertib 0.073 | [5] 0.026 | gefitinib 0.017 | [6] -0.018 | lapatinib 0.019 | pictilisib 0.059

GIPC1 (UniProt O14908)
inactive: saracatinib -0.033 | sotrastaurin -0.009 | alvocidib -0.058 | Tubastatin A -0.035 | [1] 0.018 | defactinib -0.114 | rucaparib 0.056 | [2] -0.013 | encorafenib -0.044 | [3] -0.122 | [4] -0.01 | filanesib 0.067 | zotarolimus 0.019 | idasanutlin -0.076 | alisertib -0.009 | [5] 0.048 | gefitinib 0.07 | [6] -0.007 | lapatinib -0.036 | pictilisib 0.078

GLRX2 isoform 2 (UniProt Q9NS18)
inactive: saracatinib 0.038 | sotrastaurin -0.008 | alvocidib -0.022 | Tubastatin A -0.113 | [1] 0.041 | defactinib 0.023 | rucaparib 0.102 | [2] -0.121 | encorafenib -0.074 | [3] 0.047 | [4] 0.064 | filanesib 0.016 | zotarolimus 0.051 | idasanutlin -0.007 | alisertib -0.232 | [5] -0.057 | gefitinib 0.02 | [6] 0.036 | lapatinib -0.048 | pictilisib 0.066

GORAB (UniProt Q5T7V8)
inactive: saracatinib -0.109 | sotrastaurin 0.033 | Tubastatin A -0.01 | [1] 0.062 | defactinib -0.055 | rucaparib 0.015 | [2] 0.115 | encorafenib 0.014 | [3] 0.101 | filanesib 0.001 | [5] 0.234 | gefitinib -0.004 | lapatinib -0.23

GRN (UniProt P28799)
inactive: saracatinib -0.063 | sotrastaurin 0.068 | alvocidib 0.058 | Tubastatin A 0.059 | [1] 0.034 | defactinib 0.047 | [2] 0.038 | [3] -0.017 | [4] 0.004 | filanesib 0.016 | zotarolimus -0.121 | idasanutlin 0.034 | alisertib -0.132 | [5] 0.082 | gefitinib 0.17 | [6] 0.029 | lapatinib 0.12 | pictilisib 0.039
